Experimental data as given in US11051513B2, “Pyridone compounds and agricultural and horticultural fungicides containing the same as active ingredients” (MITSUI CHEMICALS AGRO, INC., priority 2017, dated 2021).
Some entries share one result that the patent states for a list of compounds.

What was measured:
[1] = system: Magnaporthe grisea; assay type: in vivo; conditions: 250 ppm sprayed (2.5 ml/pot) on rice (Sachikaze); disease development 6 to 10 days after inoculation
[2] = system: Puccinia recondita; assay: Test Example E: Brown rust on wheat; assay type: in vivo; conditions: 250 ppm sprayed (2.5 ml/pot) on wheat (Norin 61); disease development 7 to 10 days after inoculation
[3] = system: Alternaia brassicicola; assay: Test Example C: Alternaria sooty spot on cabbage; conditions: 250 ppm sprayed (2.5 ml/pot) on cabbage (Shikidori); disease development 2 to 3 days after inoculation
[4] = system: Colletotrichum orbiculare; assay: Test Example H: Anthracnose on cucumber; conditions: 250 ppm sprayed (2.5 ml/pot) on cucumber (Sagami Hanjiro); disease development 6 to 10 days after inoculation
[5] = system: Botrytis cinerea; assay: Test Example B: Gray mold on tomato; conditions: 250 ppm sprayed (2.5 ml/pot) on tomato (Oogata Fukuju); disease development 2 to 3 days after inoculation
[6] = system: Blumeria graminis f. sp. hordei; assay: Test Example D: Powdery mildew on barley; conditions: 250 ppm sprayed (2.5 ml/pot) on barley (Akashinriki); disease development 6 to 10 days after inoculation

Measured: control value

CCn1c(-c2ccc(F)cc2)c(-c2ccc(C)cc2Cl)cc(Br)c1=O [compound 399]
> 50%: all assays above

CCn1c(-c2ccc(F)cc2)c(-c2ccccc2C)cc(Cl)c1=O [compound 295]
> 50%: all assays above

CCn1c(-c2ccc(OC)cc2)c(-c2cccc(F)c2Cl)cc(Br)c1=O [compound 61]
> 50%: all assays above

O=c1c(Br)cc(-c2ccc(F)cc2Cl)c(-c2ccc(F)cc2)n1CC(F)F [compound 499]
> 50%: all assays above

O=c1c(Br)cc(-c2cc(F)ccc2Cl)c(-c2ccc(F)cc2)n1CC(F)F [compound 451]
> 50%: all assays above

CCn1c(-c2ccc(F)cc2)c(-c2ccc(Cl)cc2Cl)ccc1=O [compound 359]
> 50%: all assays above

C#Cc1ccc(-c2c(-c3cc(F)cc(F)c3Cl)cc(Cl)c(=O)n2CC)cc1 [compound 324]
> 50%: all assays above

CCn1c(-c2ccc(OC)cc2)c(-c2cccc(OC)c2Cl)ccc1=O [compound 119]
> 50%: all assays above

CCn1c(-c2ccc(F)cc2)c(-c2ccccc2I)ccc1=O [compound 283]
not listed: [4]
> 50%: all other assays above

O=c1ccc(-c2cccc(F)c2Cl)c(-c2ccccc2)n1CC(F)F [compound 457]
> 50%: all assays above

O=c1c(Br)cc(-c2cc(F)ccc2Cl)c(-c2ccccc2)n1CC(F)F [compound 445]
> 50%: all assays above

O=c1c(Br)cc(-c2cc(F)cc(F)c2Cl)c(-c2ccccc2)n1CC(F)F [compound 70]
> 50%: all assays above

Cn1c(-c2ccc(Br)cc2)c(-c2cc(F)cc(F)c2Cl)ccc1=O [compound 309]
> 50%: [1] | [2] | [6]

CCn1c(-c2ccc(OC)cc2)c(-c2cc(F)cc(F)c2Br)ccc1=O [compound 254]
> 50%: all assays above

O=c1c(Cl)cc(-c2cc(F)ccc2Cl)c(-c2ccccc2)n1CC(F)F [compound 444]
> 50%: all assays above

O=c1c(Br)cc(-c2cc(F)cc(F)c2Cl)c(-c2ccc(F)cc2)n1CC(F)F [compound 32]
> 50%: all assays above

Cc1ccc(F)cc1-c1cc(Br)c(=O)n(CC(F)F)c1-c1ccccc1 [compound 471]
> 50%: all assays above

CCn1c(-c2ccccc2)c(-c2cc(F)cc(F)c2Br)cc(Cl)c1=O [compound 428]
> 50%: all assays above

CCN1C(=O)CCC(c2ccc(F)cc2Cl)=C1c1ccc(F)cc1 [compound 349]
not listed: [3]
> 50%: all other assays above

CCn1c(-c2ccccc2)c(-c2cc(F)ccc2Cl)cc(Br)c1=O [compound 80]
> 50%: all assays above

CCn1c(-c2ccccc2)c(-c2cc(F)ccc2Br)cc(Br)c1=O [compound 505]
> 50%: all assays above

CCCCOc1ccc(-c2c(-c3cc(F)cc(F)c3Cl)cc(Cl)c(=O)n2CC)cc1 [compound 174]
> 50%: [1] | [5] | [6]

CCN1C(=O)CCC(c2cc(F)cc(F)c2Cl)=C1c1ccccc1 [compound 15]
> 50%: [1] | [2] | [5] | [6]

CCN1C(=O)CCC(c2ccc(Br)cc2Cl)=C1c1ccc(F)cc1 [compound 385]
> 50%: [1] | [6]

CCN1C(=S)CCC(c2cc(F)cc(F)c2Cl)=C1c1ccc(F)cc1 [compound 42]
not listed: [3]
> 50%: all other assays above

CN1C(=O)CCC(c2ccc(Cl)cc2Cl)=C1c1ccc(F)cc1 [compound 354]
> 50%: [1] | [2] | [5] | [6]

CCn1c(-c2ccccc2)c(-c2cc(F)ccc2Br)cc(Cl)c1=O [compound 504]
not listed: [3]
> 50%: all other assays above

CN1C(=O)CCC(c2cc(F)cc(F)c2Cl)=C1c1ccccc1 [compound 19]
> 50%: [1] | [2] | [5] | [6]

Cc1ccccc1-c1cc(I)c(=O)n(CC(F)F)c1-c1ccccc1 [compound 526]
> 50%: [1] | [2] | [5] | [6]

CCN1C(=O)CCC(c2ccccc2Cl)=C1c1cc(F)cc(F)c1 [compound 190]
not listed: [3]
> 50%: all other assays above

Cc1ccc(F)cc1-c1cc(Cl)c(=O)n(CC(F)F)c1-c1ccc(F)cc1 [compound 475]
not listed: [2]
> 50%: all other assays above

Cc1ccc(F)cc1-c1ccc(=O)n(CC(F)F)c1-c1ccccc1 [compound 469]
not listed: [4]
> 50%: all other assays above

O=c1c(I)cc(-c2ccccc2Br)c(-c2ccc(F)cc2)n1CC(F)F [compound 523]
not listed: [4]
> 50%: all other assays above

CCn1c(-c2ccccc2)c(-c2cc(F)ccc2Br)cc(I)c1=O [compound 531]
not listed: [4]
> 50%: all other assays above

COCCOc1ccc(Cl)c(-c2cc(Br)c(=O)n(CC(F)F)c2-c2ccc(F)cc2)c1 [compound 435]
not listed: [3]
> 50%: all other assays above

Cc1ccc(C)c(-c2ccc(=O)n(CC(F)F)c2-c2ccc(F)cc2)c1 [compound 480]
> 50%: [1] | [6]
